PubChem BioAssay AID720505 – Drosophila RNAi Screening Center – 2013

- Assay: 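Genes needed for store-operated calcium entry in fly cells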 (primary screen)
- Cell system: Drosophila S2R+ cells
- Reagents: long dsRNA against Drosophila genes
- Conditions: thapsigargin (2 µM) in calcium-free buffer to empty internal stores, then 2 mM calcium added back
- Read-out: 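Stores emptied by 2 µM thapsigargin without calcium, then 2 mM calcium re-added; fluo-4 fluorescence followed by FLIPR in 384-well plates, per-well averaged endpoint, raw; two screen passes, some wells retested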
- Reading the numbers: calcium signal and retest calcium signal: higher = more calcium entry after store depletion
- Rule for the call: 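About 1500 genes called as lowering calcium entry, by varying amounts, judged against per-plate control wells with STIM1 as positive and Rho1 as negative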
- Calls: active = called as lowering calcium entry; inactive = not called
The deposit covers about 20,000 reagents; shown is an unselected part of those that have a named target and a result. Of all reagents, about 2,100 (10%) are marked active. 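Raw plate signals without normalisation; calls rest on control-based scores that were not deposited; replicate 2 separates called from uncalled poorly.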 Reagents against one gene are numbered here. A plus sign joins genes that one reagent is predicted to hit. Reagent sequences are not shown. Not given: the amount of reagent, the time to read-out.

| gene | dsRNA no. | calcium signal, replicate 1 | calcium signal, replicate 2 | retest calcium signal, replicate 1 | retest calcium signal, replicate 2 | outcome |
| --- | --- | --- | --- | --- | --- | --- |
| sals (sarcomere length short) | 1 | 109 | 87.8 | – | – | inactive |
| sals (sarcomere length short) | 2 | 170 | 114 | – | – | inactive |
| OXA1L (OXA1L mitochondrial inner membrane protein) | 1 | 84.3 | 113 | – | – | inactive |
| CG10474 | 1 | 112 | 120 | – | – | inactive |
| lgs (legless) | 1 | 110 | 157 | – | – | inactive |
| sip2 (septin interacting protein 2) | 1 | 141 | 88.8 | – | – | inactive |
| snf (sans fille) | 1 | 76.5 | 68.2 | – | – | inactive |
| CG34436 | 1 | 175 | 171 | – | – | inactive |
| CG30389 | 1 | 141 | 90.9 | – | – | inactive |
| CG30389 | 2 | 115 | 84.3 | – | – | inactive |
| E(spl)malpha-BFM (Enhancer of split malpha, Bearded family member) | 1 | 175 | 159 | – | – | inactive |
| CG11425 | 1 | 88.6 | 162 | – | – | inactive |
| nord | 1 | 112 | 164 | – | – | inactive |
| nord | 2 | 129 | 150 | – | – | inactive |
| fus (fusilli) | 1 | 103 | 135 | – | – | inactive |
| fus (fusilli) | 2 | 115 | 129 | – | – | inactive |
| sit (stuck in traffic) | 1 | 117 | 102 | – | – | inactive |
| CG13933 | 1 | 164 | 104 | – | – | inactive |
| CG14377 | 1 | 144 | 167 | – | – | inactive |
| CG42663 | 1 | 113 | 149 | – | – | inactive |
| CG42663 | 2 | 116 | 213 | 102 | 123 | inactive |
| PNPase (Polynucleotide phosphorylase) | 1 | 81.3 | 84.5 | – | – | inactive |
| CG10428 | 1 | 125 | 89.6 | – | – | inactive |
| CG3213 | 1 | 148 | 73 | 84.2 | 90.4 | inactive |
| GCS2alpha (Glucosidase 2 alpha subunit) | 1 | 90.9 | 110 | – | – | inactive |
| ssp2 (short spindle 2) | 1 | 72.6 | 87.8 | – | – | active |
| l(1)G0289 (lethal (1) G0289) | 1 | 129 | 135 | – | – | inactive |
| ref(2)P (refractory to sigma P) | 1 | 158 | 91.2 | – | – | inactive |
| Surf6 (Surfeit 6) | 1 | 209 | 300 | – | – | inactive |
| AstC (Allatostatin C) | 1 | 165 | 183 | – | – | inactive |
| Tif-IA | 1 | 66.5 | 146 | – | – | active |
| Tif-IA | 2 | 72.6 | 122 | – | – | inactive |
| EAChm (Enhancer of Acetyltransferase Chameau) | 1 | 87.8 | 211 | – | – | inactive |
| wntD (wnt inhibitor of Dorsal) | 1 | 155 | 218 | – | – | inactive |
| CG31104 | 1 | 209 | 162 | – | – | inactive |
| cpo (couch potato) | 1 | 187 | 110 | – | – | inactive |
| cpo (couch potato) | 2 | 199 | 130 | – | – | inactive |
| cpo (couch potato) | 3 | 196 | 143 | – | – | inactive |
| cpo (couch potato) | 4 | 183 | 163 | – | – | inactive |
| CG15347 | 1 | 230 | 112 | – | – | inactive |
| CG17574 | 1 | 136 | 207 | 141 | 124 | inactive |
| CG33752 | 1 | 122 | 141 | – | – | inactive |
| CG34451 | 1 | – | – | – | – | active |
| egl (egalitarian) | 1 | 140 | 279 | – | – | inactive |
| TwdlD (TweedleD) | 1 | 110 | 119 | – | – | inactive |
| Ero1L (Endoplasmic reticulum oxidoreductin-1-like) | 1 | 119 | 88.1 | – | – | inactive |
| Nt5c (5' nucleotidase C) | 1 | 154 | 98.4 | – | – | inactive |
| CG7120 | 1 | 86.9 | 75 | – | – | inactive |
| CG7766 | 1 | 164 | 160 | – | – | inactive |
| CG5342 | 1 | 133 | 140 | – | – | inactive |
| Appl (beta amyloid protein precursor-like) | 1 | 106 | 140 | – | – | inactive |
| CG17477 | 1 | 209 | 205 | – | – | inactive |
| ND-B14 (NADH dehydrogenase (ubiquinone) B14 subunit) | 1 | 107 | 148 | – | – | inactive |
| fln (flightin) | 1 | 118 | 112 | – | – | inactive |
| svr (silver) | 1 | 133 | 162 | – | – | inactive |
| CG30058 + CG34235 + CG34312 | 1 | 92.5 | 113 | – | – | inactive |

Copied from the list.
CG30389 #2, calcium signal, replicate 2: 84.3
For “outcome”, ND-B14 (NADH dehydrogenase (ubiquinone) B14 subunit) is entered as inactive
